# Measurements from PubChem BioAssay AID493014 (National Center for Advancing Translational Sciences (NCATS), 2011).
# The other results are listed elsewhere or left out. The main result of the screen is listed elsewhere. These columns were measured beside it and carry no call. Compounds called inactive in the main read-out are mostly missing here. Potencies come from curve fits of mixed quality, noted in brackets.
# Assay: qHTS Assay to Find Inhibitors of Chronic Active B-Cell Receptor Signaling
# Conditions: ABC-DLBCL IkBa-CBG/CBR reporter, luminescence ratio (green luciferase fused to IkBa over red control in TMD8 lymphoma cells), 4 h
# Outline: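 Doxycycline induced both beetle luciferases in TMD8 lymphoma cells; IKK-driven degradation limits the IkappaBalpha-fused green signal, while red luminescence normalises for cell number and nonspecific effects. Compounds tested up to 46 uM, 4 hrs.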
# [1] = measured here: CBR red luminescence, cell number
# [2] = measured here: IkBa-CBG green luminescence
SMILES,AC50 [1],AC50 [2]
CCOc1cc(-c2cc(-c3ccc(NC(C)=O)cc3)nc(N)c2C#N)ccc1O,"15.8 µM [rising, partial curve, poor fit]","11.2 µM [falling, partial curve]"
COc1ccc(S(=O)(=O)NC(CC(=O)O)c2ccco2)cc1 (configuration not stated),"32.6 µM [rising, partial curve, poor fit]",–
O=C1CC(NS(=O)(=O)c2ccc([N+](=O)[O-])cc2)CN1c1ccc2c(c1)OCCO2 (configuration not stated),"18.4 µM [falling, single point]",–
CCCCNC(=NCc1cccc(C(F)(F)F)c1)Nc1ccccc1,"10 µM [falling, single point]",–
O=C(N/N=C/c1ccc(O)cc1O)C(=O)N/N=C/c1ccc(O)cc1O,"17.8 µM [falling, single point]",–
Cc1ccn(-c2cccc(-n3ccc(C)n3)n2)n1,"32.6 µM [rising, single point]",–
COc1ccc(/C=C/C(=O)Nc2nc(C)cc(C)n2)cc1OC,"35.5 µM [falling, single point]",–
CC(C(=O)NCc1ccco1)n1cc(C(=O)c2ccco2)c2ccccc21 (configuration not stated),"20.6 µM [rising, single point]",–
S=c1[nH]nc(-c2ccccc2)n1/N=C/c1ccc(-c2ccccc2Cl)o1,"18.4 µM [rising, single point]",–
CCCCOC(=O)n1c(=O)oc2cc(S(=O)(=O)N3CCCCC3)ccc21,"6.51 µM [rising, single point]",–
O=C(COC(=O)CCC(=O)c1ccccc1)Nc1nnc(-c2ccccc2)o1,"6.51 µM [rising, single point]",–
Cc1ccc(OCCNC(=O)c2cc(-n3cnnc3)ccc2Cl)cc1C,"31.6 µM [falling, partial curve, poor fit]",–
O=c1oc(-c2cccs2)nc2ccccc12,"11.6 µM [falling, partial curve]",–
O=C(O)C1C(c2ccccc2)C(C(=O)OCCCO)C1c1ccccc1 (configuration not stated),"3.55 µM [falling, partial curve, poor fit]",–
Cc1cccn2c(=O)nc(SCC(=O)NCc3ccccc3)nc12,"0.082 µM [rising, full curve, poor fit]",–
Cc1cc(C)n(-c2cc(-c3ccccc3)nc(C)n2)n1,"29.1 µM [falling, single point]",–
C=CCN1C(=O)[C@@H]2Cc3c([nH]c4ccccc34)C(c3cc(OC)c(OC)c(OC)c3)N2C1=S (some centres not stated),"14.1 µM [falling, single point]",–
CC/C(=N\NC(=O)c1ccc2c(c1)OCO2)c1ccccc1,"4.47 µM [falling, partial curve]",–
C/C(CC(=O)Nc1ccccn1)=N\NC(=O)c1ccc(C)cc1,"18.4 µM [falling, partial curve]",–
Fc1ccc(-c2nnc(NC3=NCCCCC3)o2)cc1,"1.78 µM [falling, full curve]",–

# As a working copy, 3 of the compounds above.
SMILES,AC50 [1],AC50 [2]
CC(C(=O)NCc1ccco1)n1cc(C(=O)c2ccco2)c2ccccc21 (configuration not stated),"20.6 µM [rising, single point]",–
S=c1[nH]nc(-c2ccccc2)n1/N=C/c1ccc(-c2ccccc2Cl)o1,"18.4 µM [rising, single point]",–
CCCCOC(=O)n1c(=O)oc2cc(S(=O)(=O)N3CCCCC3)ccc21,"6.51 µM [rising, single point]",–

# Carrying on.

SMILES,AC50 [1],AC50 [2]
COc1ccc(SC[C@H](Cc2ccccc2)N2CC[C@@H](NC(=O)OCc3ccccc3)CCC2=O)cc1,"32.6 µM [falling, partial curve, poor fit]",–
CCN1/C(=C/c2ccc3cccc(C)c3[n+]2CC)Sc2ccccc21,"17.8 µM [falling, single point]",–
OCCCc1nc2n(n1)C(c1cccs1)C=C(c1ccc(Br)cc1)N2 (configuration not stated),"18.4 µM [falling, partial curve, poor fit]",–
O=C(Nc1ccc(N2CCOCC2)cc1)c1ccc([N+](=O)[O-])cc1,"3.98 µM [rising, full curve, poor fit]",–
Cn1c(-c2ccccc2)cc2onc(-c3ccccc3)c2c1=O,"5.17 µM [falling, single point]",–
COc1ccc(OC)c(NC(=O)c2c(NCc3ccc(C)o3)sc3c2CCC(C)C3)c1 (configuration not stated),"3.55 µM [rising, partial curve, poor fit]",–
O=C(Nc1nc2ccccc2s1)c1ccc2c(c1)OCO2,"2.06 µM [falling, full curve]",–
O=C(Nc1ccc(OC(F)F)cc1)Nc1cccc(C(F)(F)F)c1,"16.4 µM [falling, single point]",–
O=C(O)c1cnn2c1NC(c1ccc(F)cc1)CC2C(F)(F)F (configuration not stated),"0.517 µM [rising, full curve, poor fit]",–
O=C(O)c1cc(-c2ccco2)nc2cc3ccccc3cc12,"17.8 µM [falling, single point]",–
O=C(NNC(=O)c1cccnc1)Nc1ccccc1,"5.62 µM [falling, full curve, poor fit]",–
O=C(c1cc(-c2ccc(Br)cc2)on1)N1CCCCCC1,"1.12 µM [falling, full curve, poor fit]",–
CC(=O)c1cccc(S(=O)(=O)NCCc2csc3nc(-c4ccc(F)cc4)nn23)c1,"8.91 µM [falling, partial curve]","7.94 µM [rising, partial curve, poor fit]"
CC(C)(C)C(=O)Nc1ccc(/C=C/C(=O)c2ccco2)cc1,"17.8 µM [falling, single point]",–
O=C(O)COc1ccccc1C=NNc1ccc([N+](=O)[O-])cc1S(=O)(=O)Nc1ccc(Cl)cc1,"25.9 µM [rising, partial curve, poor fit]",–
O=C(OCCN=C1NS(=O)(=O)c2ccccc21)c1cccc([N+](=O)[O-])c1,"0.2 µM [rising, full curve, poor fit]",–
COc1ccccc1C(=O)NNC(=S)NC(=O)c1cc(OC)c(OC)c(OC)c1,–,"3.55 µM [falling, partial curve, poor fit]"
Cc1[nH]c2ccccc2c1SCC(=O)Nc1nccs1,"15.8 µM [falling, partial curve, poor fit]",–
O=C(CSc1nc(-c2cccs2)cc(C(F)(F)F)n1)NCCCN1CCOCC1,"35.5 µM [rising, single point]",–
CCCNC(=O)c1onc(CSc2ccc(F)cc2)c1C(=O)NCCC,"35.5 µM [falling, single point]",–
